Results on one molecule are retold here after patent publication US20240382626A1, “IRRADIATION AMENABLE LIPOSOMAL DYE AGGREGATES AND METHODS OF SYNTHESIS AND USE THEREOF” (Board of Regents, The University of Texas System, priority 2023, published 2024).

The series concerns mouse kidney and surrounding tissue. Nature of the series: In vivo photoacoustic sO2 measurement after contrast agent injection. Set-up: species or system mice. The text has this: Particle circulation was monitored by imaging the mouse kidney and surrounding tissue. The kidney is a high blood flow organ that has the distinct advantage of being easily and rapidly identifiable using ultrasound imaging. Simple setup and identification decreases the amount of time animals are under anesthesia and limits any potential artificial lowering of SO2 due to prolonged exposure to anesthetic agents. Once prepped, mice placed in the imaging system were imaged with power-doppler to confirm blood flow and baseline values for SO2 and contrast agent signals (FIG. 13). Following a bolus injection of a 5 mg/kg dose of contrast agent via the tail vein, the same region was monitored at varying time points. After processing with FUJIFILM VisualSonics' proprietary spectral unmixing software the images were analyzed using in-house MATLAB software. Power-doppler images guide the placement of ROIs around areas of high blood flow allowing isolation and calculation of SO2 and contrast agent signal over the course of imaging.
To assess their performance in vivo, particles were injected intravenously via the tail vein. Particle circulation was monitored by imaging the mouse kidney and surrounding tissue. […] Following a bolus injection of contrast agent via the tail vein, the same region was monitored at multiple time points. […]

For `CC1(C)C(/C=C/C=C/C=C/C=C2\N(CCCCS(=O)(=O)O)c3ccc4ccccc4c3C2(C)C)=[N+](CCCCS(=O)(=O)[O-])c2ccc3ccccc3c21` [IcG, Indocyanine Green], where the note is “5 mg/kg bolus, tail vein”, the “change in measured sO2 during imaging” value is on record as 15 to 20%. Also, under “5 mg/kg dose, varying time points after injection”, the “effect on measured sO2 (in words)” value is on record as “does cause a significant drop”.
